# From EP4444311B1, “GI[…] TREATMENT OF CHRONIC HEPATITIS B VIRUS INFECTIONS” (priority 2021, dated 2023)
# Entries after “also recorded” stand apart in the source; their conditions may differ. At least one compound was matched to its structure with a doubt left.
# Assays:
# Assay type in all cases: cell-based, hepatitis B virus
# HBV DNA = experiment: Inhibition of HBV DNA secretion from HepG2.2.15 cells (RT-qPCR); combination indices by Chou-Talalay method; conditions: agents alone, day 5 post-first exposure
# [1] = test system: HBs protein (S-HBs, M-HBs, and L-HBs) mRNA; experiment: Knockdown of HBs protein mRNA expression levels in HepG2.2.15 cells (RT-qPCR relative to GAPDH mRNA); conditions: day 5 post-first exposure
# Experimental: HepG2.2.15 cells (seeded at a density of 4 x 10^4 cells per well in 96-well plates) were cultured at 37 °C in humidified air with 5 % CO2. Once cells had reached confluence, initial screening of ginsenoside library compounds was performed with each compound added individually to culture media at a final concentration of 50 µM. Cells were then further incubated at 37 °C under 5 % CO2. At day 4 post-first exposure, cells were then collected to determine the percentage knockdowns of HBs protein mRNA expression levels relative to GAPDH mRNA levels (as described below).
# Thereafter, more extensive studies were performed with HepG2.2.15 cells as follows. […]
# RNA extraction from cells was performed using the QIAamp® Viral RNA Mini kit (Qiagen, Germany), according to manufacturer's instructions. RNA integrity was evaluated by electrophoresis on 1% agarose gels, and quantified using a ND1000 spectrophotometer (NanoDrop Technologies, Germany). […] Percentage knockdowns of HBs protein mRNA expression levels were determined relative to GAPDH mRNA levels using calculated 2^-ΔΔct values [Livak, K.J; Schmittgen, T.D. Analysis of relative gene expression data using real-time quantitative PCR and the 2(-Delta Delta C(T)) Method. […]
# HBsAg = experiment: Inhibition of HBsAg secretion from HepG2.2.15 cells (ELISA); combination indices by Chou-Talalay method; conditions: day 5 post-first exposure
compound,measurement,setting,value
"Nc1ccn([C@@H]2CS[C@H](CO)O2)c(=O)n1 [LMV, lamivudine]",inhibition of HBV DNA secretion (in words),HBV DNA,significantly inhibited
same,impact upon HBs protein mRNA expression levels,[1],no obvious impact
same,inhibition of HBsAg secretion (in words),HBsAg,generally more so; also recorded: potent impact
